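Luminescence from an EWS-FLI1 target-promoter (NR0B1) reporter, set against a CMV-promoter reporter, two days after silencing single genes in TC32 Ewing sarcoma cells. Each siRNA was applied at 20 nM. A z-score of the log NR0B1-over-CMV signal, less the median of siRNAs with the same seed; more negative means a stronger specific loss of the NR0B1 reporter.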

This is part of the screen; most of the strongest results are not listed here. Sequences are the guide (antisense) strand, without overhang.

* AUAGGGUAAAAACAUAACG against CATSPER3 : seed-corrected z-score 0.4769
* UGGGUUAAAAAUGAGGCGG against HTR3D : seed-corrected z-score -0.6548
* AAUAGGUUCAGAUACACUG against EFL1 : seed-corrected z-score -1.068
* UUUCGGUAAAGCCGUAAUC against ZIC4 : seed-corrected z-score 0.7286
* UACUCUCUAACCAAUCUAC against NUP107 : seed-corrected z-score -0.7598
* UUGAUAACAAGACAUAGCG against PREP : seed-corrected z-score -0.02233
* AAACCAGAAAAUACGAGCC against ACHE : seed-corrected z-score -0.7684
* UAUCCAAGAAAUAAAUAGC against IL27 : seed-corrected z-score 0.3681
* UAACUACCACAUCACAACC against MDH2 : seed-corrected z-score -0.1754
* AUUUCUCAAAGGUUAGUCC against KCNMB1 : seed-corrected z-score -0.09818
* UUCCUUUACACGUUGCUCU against JPH4 : seed-corrected z-score -1.357
* UUUUGUUACUGGUCUGACC against E2F6 : seed-corrected z-score -0.1281
* AAACACUCAAUGUUCAAUG against HSPA4L : seed-corrected z-score 0.4108
* UUCGCUCUUGUAUCAGCUG against TNFSF14 : seed-corrected z-score 0.05527
* UACGGGAAAACGAGCCUCC against EGR4 : seed-corrected z-score 0.8205
* UCCGUCACCGUGUUUCACC against HPD : seed-corrected z-score -0.2238
* UUACGAACAUCAAUGUGGG against ANKHD1-EIF4EBP3 : seed-corrected z-score 0.1113
* UUUCUUUCGAGUCCCAGCC against APOBR : seed-corrected z-score 0.2738
* UUUGGUAGGUUCAAGGACU against ZNF410 : seed-corrected z-score 2.111
* UUAAGUUUAGUCGCGUUCC against CD160 : seed-corrected z-score -0.879
* AAUCUCACAGUUGUAGUUG against SF3A3 : seed-corrected z-score -1.989
* AUAUAUCUCAUCUCCGUGC against PKHD1 : seed-corrected z-score 0.4339
* AUUUCUUUUGACGAGAUUC against INO80D : seed-corrected z-score 0.1741
* UUCCGGAACUUGUUAGUUC against ZC3H3 : seed-corrected z-score 0.07771
* AAAGGUUGCUGUCAUGUCC against EGR1 : seed-corrected z-score -0.1744
* UUUGGUAUGGUCCCAGUGC against IL11RA : seed-corrected z-score 0.2352
* UCGUUUUAGAUAUCUGUUC against SNX2 : seed-corrected z-score 0.4263
* AAAGUUGAGGUUGGUGUCU against TMCC3 : seed-corrected z-score -0.4559
* AUAAUUACAAAAACUCGCG against GOLGA5 : seed-corrected z-score 0.5479
* UGGGAUGCUCUGUUGGUUC against GGT6 : seed-corrected z-score 0.5675
* UUAGCAUCCAGGUGGUAGC against C14orf93 : seed-corrected z-score -0.7143
* AUUAGUGAAAGAAUACACG against MFSD1 : seed-corrected z-score -0.1059
* UCCUGUUCUCUUAGCAUCC against BUD13 : seed-corrected z-score -0.0653
* UAUUGAUUGUGGAGAAUCC against PCMT1 : seed-corrected z-score -0.02335
* UCAAGUUCUAAGAGCAUGG against FAM71E2 : seed-corrected z-score -0.8174
* AAGGUGGAGAGUGCACGUG against LINC00997 : seed-corrected z-score -1.085
* UCUCUUAGCACUUGGAUCC against USP54 : seed-corrected z-score 0.002334
* UAUGGAUGGAGUCGAGUGG against PIGP : seed-corrected z-score 0.7312

3 of the entries, repeated:

siRNA,gene,seed-corrected z-score
UUGAUAACAAGACAUAGCG,PREP,-0.02233
UCAAGUUCUAAGAGCAUGG,FAM71E2,-0.8174
UAUGGAUGGAGUCGAGUGG,PIGP,0.7312

Source: PubChem BioAssay AID1159506 (NCATS, 2015).